Some results were stated once for a whole list of compounds, not compound by compound. Some ranges recur; such a range may be that of the whole group of compounds.
Assays:
Format in all cases: in vivo
Erysiphe graminis = experiment: Action against Erysiphe graminis/barley (powdery mildew on barley); settings: barley plants cv. Express, 0.02% active ingredient sprayed 1 day before inoculation, assessed after 6 days incubation
Puccinia recondite = experiment: Action against Puccinia recondite/wheat (brownrust on wheat); settings: wheat plants cv. Arina, 0.02% active ingredient sprayed 1 day before inoculation, assessed 10 days after inoculation
Septoria nodorum = experiment: Action against Septoria nodorum/wheat (Septoria leaf spot on wheat); settings: wheat plants cv. Arina, 0.02% active ingredient sprayed 1 day before inoculation, assessed 11 days after inoculation
Podosphaera leucotricha = experiment: Action against Podosphaera leucotricha/apple (powdery mildew on apple); settings: apple seedlings cv. McIntosh, 0.002% active ingredient sprayed 1 day before inoculation, assessed after 12 days incubation
Botrytis cinerea = experiment: Action against Botrytis cinerea/tomato (Botrytis on tomatoes); settings: tomato plants cv. Roter Gnom, 0.02% active ingredient sprayed 2 days before inoculation, assessed after 4 days incubation
Venturia inaequalis = experiment: Action against Venturia inaequalis/apple (scab on apple); settings: apple seedlings cv. McIntosh, 0.02% active ingredient sprayed 1 day before inoculation, assessed after 4+4+4 days incubation

SMILES	infestation (strong efficacy) (Erysiphe graminis) [%]	infestation (prevented virtually completely) (Puccinia recondite)	disease incidence (good activity) (Septoria nodorum) [%]	infestation (strong efficacy) (Podosphaera leucotricha) [%]	disease incidence (strong efficacy) (Botrytis cinerea) [%]	infestation (strong efficacy) (Venturia inaequalis) [%]
C#CCN(C(=O)c1cn(C)nc1C(F)(F)F)c1ccccc1C(C)C[Si](C)(C)C (racemic) [Compound 1.26]	< 20	0-5%	–	–	–	–
CC(Cc1ccccc1NC(=O)c1cn(C)nc1CF)[Si](C)(C)C (racemic) [Compound 1.46]	–	0-5%	< 60	< 20	< 20	< 20
CC(CC[Si](C)(C)C)c1ccccc1NC(=O)c1cn(C)nc1C(F)F (racemic) [Compound 1.56]	–	0-5%	< 60	–	–	–
CC(C[Si](C)(C)C(C)(C)C)c1ccccc1NC(=O)c1cn(C)nc1C(F)(F)F (racemic) [Compound 1.60]	< 20	0-5%	–	–	–	–
CC[Si](C)(C)CC(C)c1ccccc1NC(=O)c1cn(C)nc1C(F)(F)F (racemic) [Compound 1.64]	< 20	0-5%	–	< 20	–	< 20
CC(C)C[Si](C)(C)CC(C)c1ccccc1NC(=O)c1cn(C)nc1C(F)(F)F (racemic) [Compound 1.67]	< 20	0-5%	–	< 20	–	–
CC(C[Si](C)(C)C)c1ccccc1NC(=O)c1cn(C)cc1C(F)(F)F (racemic) [Compound 2.21]	–	0-5%	–	–	–	–
C=C=CN(C(=O)c1cn(C)cc1C(F)(F)F)c1ccccc1C(C)C[Si](C)(C)C (racemic) [Compound 2.27]	< 20	0-5%	–	< 20	–	< 20
CC(C[Si](C)(C)C(C)(C)C)c1ccccc1NC(=O)c1cn(C)cc1C(F)(F)F (racemic) [Compound 2.60]	< 20	0-5%	–	–	–	–
CC(C[Si](C)(C)C(C)C)c1ccccc1NC(=O)c1cn(C)cc1C(F)(F)F (racemic) [Compound 2.66]	–	0-5%	–	–	–	–
CC(C)C[Si](C)(C)CC(C)c1ccccc1NC(=O)c1cn(C)cc1C(F)(F)F (racemic) [Compound 2.67]	–	0-5%	–	–	–	–
Cc1nc(C(F)(F)F)c(C(=O)Nc2ccccc2C(C)C[Si](C)(C)C)o1 (racemic) [Compound 4.20]	–	0-5%	–	–	–	–
CC(C[Si](C)(C)C)c1ccccc1NC(=O)c1cccnc1Cl (racemic) [Compound 9.19]	< 20	0-5%	–	< 20	–	–
CC(C[Si](C)(C)C)c1ccccc1NC(=O)c1cn(C)nc1C(F)(F)F (single isomer, unassigned) [Compound 1.21B]	–	–	< 60	–	–	–
Cn1cc(C(=O)Nc2ccccc2[Si](C)(C)C)c(C(F)F)n1 [Compound 1.2]	< 20	0-5%	–	< 20	–	< 20
Cn1cc(C(=O)Nc2ccccc2C[Si](C)(C)C)c(C(F)(F)F)n1 [Compound 1.3]	–	–	–	< 20	< 20	–
Cn1cc(C(=O)Nc2ccccc2CC[Si](C)(C)C)c(C(F)(F)F)n1 [Compound 1.14]	< 20	0-5%	–	< 20	< 20	< 20
Cn1cc(C(=O)Nc2ccccc2CC[Si](C)(C)C)c(C(F)F)n1 [Compound 1.16]	< 20	0-5%	–	< 20	< 20	< 20
C#CCN(C(=O)c1cn(C)nc1C(F)(F)F)c1ccccc1CC[Si](C)(C)C [Compound 1.17]	< 20	0-5%	–	–	–	–
CC(C[Si](C)(C)C)c1ccccc1NC(=O)c1cn(C)nc1C(F)(F)F (stereo not drawn) [Compound 1.21]	< 20	0-5%	–	< 20	–	< 20

SMILES	infestation (strong efficacy) (Erysiphe graminis) [%]	infestation (prevented virtually completely) (Puccinia recondite)	disease incidence (good activity) (Septoria nodorum) [%]	infestation (strong efficacy) (Podosphaera leucotricha) [%]	disease incidence (strong efficacy) (Botrytis cinerea) [%]	infestation (strong efficacy) (Venturia inaequalis) [%]
CC(C[Si](C)(C)C)c1ccccc1NC(=O)c1cn(C)nc1C(F)F (stereo not drawn) [Compound 1.24]	< 20	0-5%	< 60	< 20	–	< 20
C=C=CN(C(=O)c1cn(C)nc1C(F)(F)F)c1ccccc1C(C)C[Si](C)(C)C (stereo not drawn) [Compound 1.27]	< 20	0-5%	–	< 20	–	< 20
Cn1cc(C(=O)Nc2ccccc2CCC[Si](C)(C)C)c(C(F)F)n1 [Compound 1.32]	–	0-5%	< 60	–	–	< 20
CC(Cc1ccccc1NC(=O)c1cn(C)nc1C(F)(F)F)[Si](C)(C)C (stereo not drawn) [Compound 1.47]	–	0-5%	< 60	–	< 20	–
C=C(C[Si](C)(C)CC)c1ccccc1NC(=O)c1cn(C)nc1C(F)(F)F [Compound 1.62]	–	0-5%	–	–	–	–
CC[Si](C)(C)CCc1ccccc1NC(=O)c1cn(C)nc1C(F)(F)F [Compound 1.63]	< 20	0-5%	–	–	< 20	< 20
CC(C[Si](C)(C)C(C)C)c1ccccc1NC(=O)c1cn(C)nc1C(F)(F)F (stereo not drawn) [Compound 1.66]	< 20	0-5%	–	–	–	–
CC(C)C[Si](C)(C)c1ccccc1NC(=O)c1cn(C)nc1C(F)(F)F [Compound 1.73]	< 20	0-5%	–	< 20	–	–
C=C=CN(C(=O)c1cn(C)nc1C(F)(F)F)c1ccccc1CC[Si](C)(C)C [Compound 1.77]	–	0-5%	–	< 20	–	< 20
Cn1cc(C(=O)Nc2ccccc2CCC[Si](C)(C)C)c(C(F)(F)F)n1 [Compound 1.79]	< 20	0-5%	–	–	–	< 20
Cn1cc(C(=O)Nc2ccccc2[Si](C)(C)C)c(C(F)(F)F)c1 [Compound 2.1]	< 20	0-5%	–	–	< 20	–
Cn1cc(C(=O)Nc2ccccc2C[Si](C)(C)C)c(C(F)(F)F)c1 [Compound 2.3]	–	–	–	< 20	< 20	–
Cn1cc(C(=O)Nc2ccccc2CC[Si](C)(C)C)c(C(F)(F)F)c1 [Compound 2.14]	< 20	0-5%	–	< 20	< 20	< 20
CC[Si](C)(C)CCc1ccccc1NC(=O)c1cn(C)cc1C(F)(F)F [Compound 2.63]	< 20	0-5%	–	< 20	< 20	< 20
Cc1nc(C(F)(F)F)c(C(=O)Nc2ccccc2C[Si](C)(C)C)s1 [Compound 3.3]	–	–	–	< 20	< 20	–
Cc1nc(C(F)(F)F)c(C(=O)Nc2ccccc2CC[Si](C)(C)C)s1 [Compound 3.14]	< 20	0-5%	–	< 20	< 20	< 20
Cc1nc(C(F)(F)F)c(C(=O)Nc2ccccc2C(C)C[Si](C)(C)C)s1 (stereo not drawn) [Compound 3.20]	< 20	0-5%	–	< 20	–	–
C[Si](C)(C)Cc1ccccc1NC(=O)c1cccnc1Cl [Compound 9.3]	–	–	–	< 20	< 20	–
C[Si](C)(C)CCc1ccccc1NC(=O)c1cccnc1Cl [Compound 9.14]	< 20	0-5%	–	< 20	< 20	< 20

Source: US8357816B2, “Chemical compounds” (Syngenta Crop Protection LLC, priority 2002, dated 2013)
